Measurements reported in PubChem BioAssay AID1259254 (NCATS, 2017).

- Test: 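Gene knock-downs that lead to re-replication, shown by excess G2 DNA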 (primary screen)
- Cells: human HCT116 colorectal cancer cells
- Reagents: single siRNA against human genes
- Timing: 3 days
- Read-out: 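Nuclei stained with Hoechst and imaged; cell-cycle phase assigned by DNA content; G2 share scaled per plate, non-targeting siRNA 0%, GMNN siRNA 100%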
- Reading the numbers: G2 robust z-score and G2 cells, % of GMNN control: higher = more G2 cells, more excess DNA replication
- Hit rule: 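Active siRNAs have a G2 robust z of 5 or more median absolute deviations over the median, which in these data means about 38% or higher of GMNN control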
Here is one part, drawn at random, of about 59,000 reagents. About 1,550 of all reagents (2.6%) were called active. 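G2 share is only a proxy for re-replication; each gene was hit by three separate siRNAs, and active genes were retested.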 The numbers tell different reagents against one gene apart. Further read-outs or replicates are left out here. The record does not give: the amount of reagent.

gene symbol | reagent | G2 robust z-score | G2 cells, % of GMNN control | call
RPF1 | 1 | 0.218 | 4.5 | inactive
RPF1 | 2 | 1.39 | 12.7 | inactive
RPF1 | 3 | -0.58 | -1.11 | inactive
MTHFD2 | 1 | -1.55 | -7.92 | inactive
MTHFD2 | 2 | -0.307 | 0.807 | inactive
MTHFD2 | 3 | -0.456 | -0.244 | inactive
DNAJC16 | 1 | -0.652 | -1.62 | inactive
DNAJC16 | 2 | 0.565 | 6.95 | inactive
DNAJC16 | 3 | -0.31 | 0.788 | inactive
LINC01098 | 1 | 2.01 | 17.1 | inactive
LINC01098 | 2 | -0.109 | 2.2 | inactive
LINC01098 | 3 | -0.877 | -3.2 | inactive
MZT1 | 1 | 0.62 | 7.33 | inactive
MZT1 | 2 | -0.0553 | 2.58 | inactive
MZT1 | 3 | -0.37 | 0.365 | inactive
GCNT4 | 1 | 3.92 | 30.5 | inactive
GCNT4 | 2 | -0.954 | -3.74 | inactive
GCNT4 | 3 | 0.567 | 6.95 | inactive
CDK10 | 1 | 0.154 | 4.05 | inactive
CDK10 | 2 | -0.0445 | 2.65 | inactive
CDK10 | 3 | -0.632 | -1.48 | inactive
METTL14 | 1 | 0.826 | 8.78 | inactive
METTL14 | 2 | 1.62 | 14.4 | inactive
METTL14 | 3 | 3.2 | 25.5 | inactive
TIAM2 | 1 | -0.912 | -3.45 | inactive
TIAM2 | 2 | 1.76 | 15.3 | inactive
TIAM2 | 3 | -0.122 | 2.11 | inactive
SYT16 | 1 | -0.507 | -0.597 | inactive
SYT16 | 2 | -0.792 | -2.61 | inactive
SYT16 | 3 | 0.898 | 9.29 | inactive
TGFB3 | 1 | 1 | 10 | inactive
TGFB3 | 2 | 2.5 | 20.5 | inactive
TGFB3 | 3 | 0.147 | 4 | inactive
CCDC86 | 1 | -0.916 | -3.48 | inactive
CCDC86 | 2 | -0.0148 | 2.86 | inactive
CCDC86 | 3 | -0.162 | 1.83 | inactive
AP5Z1 | 1 | 0.165 | 4.13 | inactive
AP5Z1 | 2 | 2.55 | 20.9 | inactive
AP5Z1 | 3 | 0.314 | 5.18 | inactive
TMEM86B | 1 | -1.22 | -5.61 | inactive
TMEM86B | 2 | -0.367 | 0.383 | inactive
TMEM86B | 3 | 0.744 | 8.2 | inactive
ZCCHC7 | 1 | 2.35 | 19.5 | inactive
ZCCHC7 | 2 | -0.29 | 0.93 | inactive
ZCCHC7 | 3 | -0.587 | -1.16 | inactive

Continued (10 carried over from the part before).
gene symbol | reagent | G2 robust z-score | G2 cells, % of GMNN control | call
CCDC86 | 3 | -0.162 | 1.83 | inactive
AP5Z1 | 1 | 0.165 | 4.13 | inactive
AP5Z1 | 2 | 2.55 | 20.9 | inactive
AP5Z1 | 3 | 0.314 | 5.18 | inactive
TMEM86B | 1 | -1.22 | -5.61 | inactive
TMEM86B | 2 | -0.367 | 0.383 | inactive
TMEM86B | 3 | 0.744 | 8.2 | inactive
ZCCHC7 | 1 | 2.35 | 19.5 | inactive
ZCCHC7 | 2 | -0.29 | 0.93 | inactive
ZCCHC7 | 3 | -0.587 | -1.16 | inactive
ISG20L2 | 1 | 2.73 | 22.2 | inactive
ISG20L2 | 2 | 0.135 | 3.92 | inactive
ISG20L2 | 3 | 0.239 | 4.65 | inactive
ARRB2 | 1 | -1.36 | -6.59 | inactive
ARRB2 | 2 | -0.641 | -1.54 | inactive
ARRB2 | 3 | 3.5 | 27.6 | inactive
S100P | 1 | 1.21 | 11.5 | inactive
S100P | 2 | 1.98 | 16.9 | inactive
S100P | 3 | 0.309 | 5.14 | inactive
UNC5CL | 1 | 0.126 | 3.86 | inactive
UNC5CL | 2 | -0.191 | 1.62 | inactive
UNC5CL | 3 | -0.26 | 1.14 | inactive
OR51M1 | 1 | 1.66 | 14.7 | inactive
OR51M1 | 2 | 1.05 | 10.4 | inactive
OR51M1 | 3 | 0.316 | 5.19 | inactive
GPR61 | 1 | -1.39 | -6.83 | inactive
GPR61 | 2 | -0.514 | -0.65 | inactive
GPR61 | 3 | -0.645 | -1.57 | inactive
TOP6BL | 1 | 1.38 | 12.7 | inactive
TOP6BL | 2 | -0.741 | -2.25 | inactive
TOP6BL | 3 | 0.23 | 4.59 | inactive
STK11IP | 1 | 2.3 | 19.2 | inactive
STK11IP | 2 | 1.7 | 14.9 | inactive
STK11IP | 3 | 0.0341 | 3.21 | inactive
OSCAR | 1 | -0.052 | 2.6 | inactive
OSCAR | 2 | 0.832 | 8.82 | inactive
OSCAR | 3 | -0.0948 | 2.3 | inactive
LOC81787 (retired record) | 1 | -0.837 | -2.92 | inactive
LOC81787 (retired record) | 2 | -0.707 | -2.01 | inactive
LOC81787 (retired record) | 3 | 1.37 | 12.6 | inactive
PDIA5 | 1 | -0.0845 | 2.37 | inactive
PDIA5 | 2 | 0.0934 | 3.62 | inactive
PDIA5 | 3 | 1.19 | 11.3 | inactive
GBP3 | 1 | 7.07 | 52.7 | active
GBP3 | 2 | 0.702 | 7.91 | inactive
GBP3 | 3 | 0.567 | 6.95 | inactive
ACTR5 | 1 | 1.54 | 13.8 | inactive
ACTR5 | 2 | -0.945 | -3.68 | inactive
ACTR5 | 3 | 0.807 | 8.65 | inactive
ANKRD23 | 1 | -0.161 | 1.83 | inactive
ANKRD23 | 2 | 0.712 | 7.98 | inactive
ANKRD23 | 3 | -0.817 | -2.78 | inactive
